Results are given in words; binding and its absence hold for the method and conditions named. Some binding calls cover weakened binding; strength is not graded here.

Chains of the proteins cited; added tags and fusions are not shown. Residues count along the entry.
UniProt P04618: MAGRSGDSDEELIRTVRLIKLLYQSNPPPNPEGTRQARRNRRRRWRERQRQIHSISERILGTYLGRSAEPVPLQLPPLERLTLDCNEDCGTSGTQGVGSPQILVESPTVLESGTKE
UniProt P67809, residues 186-324: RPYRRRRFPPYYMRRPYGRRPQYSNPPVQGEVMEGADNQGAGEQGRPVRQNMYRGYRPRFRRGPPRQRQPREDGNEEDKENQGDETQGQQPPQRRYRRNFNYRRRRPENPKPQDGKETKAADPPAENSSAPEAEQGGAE

The assay has as its target LexA-Rev bait (HIV-1 Rev, isolate HXB2, wild type) (HIV-1 isolate HXB2) (UniProt P04618). Nature of the assay: two-hybrid.

For “11.5.1 library prey (C-terminal 139 amino acids of human DNA binding protein B) (from UniProt P67809 186-324) (domain or fragment)”, the binding entry is listed as “binds”.

Source of the values: paper PMC1097722.
